Drawing on article PMC9896144, “A “grappling hook” interaction connects self-assembly and chaperone activity of Nucleophosmin 1” (PNAS Nexus, 2023), this text covers binding for one substance.

By UniProt entry, the sequences of proteins in these tests, tags left out. Where a name states a change or a piece, a line headed by the entry shows the natural chain unless it says otherwise. Residues count along the entry.
UniProt P06748: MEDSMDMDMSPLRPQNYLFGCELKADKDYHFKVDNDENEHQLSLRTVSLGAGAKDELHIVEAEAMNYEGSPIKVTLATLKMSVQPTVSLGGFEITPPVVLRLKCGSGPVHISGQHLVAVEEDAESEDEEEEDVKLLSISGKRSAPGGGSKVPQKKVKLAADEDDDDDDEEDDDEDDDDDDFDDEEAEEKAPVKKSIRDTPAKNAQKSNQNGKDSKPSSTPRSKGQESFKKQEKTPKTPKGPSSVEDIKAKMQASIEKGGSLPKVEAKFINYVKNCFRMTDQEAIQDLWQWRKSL
NPM1_(240), the NTD and the entire IDR of NPM1: residues 1-240 of P06748
NPM1_(188), the NTD and the acidic regions of the IDR of NPM1: residues 1-188 of P06748

No constants are given. Whether binding was seen depends on the method and setting. Some results given as binding are weak or reduced against the parent protein; the word gives no strength.

The target in experiment [1] is NPM1_(188), the NTD and the acidic regions of the IDR of NPM1 (human) (UniProt P06748). The experiment can be described thus: native MS; mixture of NPM1_188 and NPM1_240-294 (Fig. S6a); both purified.
Experiment [2] addresses NPM1_(240-294), the isolated C-terminal nucleotide-binding domain (CTD) of NPM1 (human) (UniProt P06748). Put plainly: native MS; each NPM1 variant alone; nESI with collision-induced dissociation, collision voltages 25 to 75 V; both purified.
The target of experiment [3] is NPM1_(240), the NTD and the entire IDR of NPM1 (human) (UniProt P06748). Put plainly: other fluorescence titration; intrinsic fluorescence of tryptophans 288 and 290 of NPM1_240-294; equimolar amounts of partner added (single point), n = 6; also with quadruplex DNA; both purified.

Consider “NPM1_(240-294), the isolated C-terminal nucleotide-binding domain (CTD) of NPM1 (from UniProt P06748 240-294) (domain or fragment)”, for which the values for the binding entry in experiment [1], in experiment [2] and in experiment [3] were “binds weakly”, “no binding” and “binds weakly”, respectively.
